Values from PubChem BioAssay AID1259424 (University of Nebraska Medical Center, 2018).

- Assay: 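Find knockdowns that reproduce the expression shifts seen after KSR1 loss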 (primary screen)
- Cells: human HCT116 colon cancer cells
- Knock-down reagent: siRNA pool against human genes, 50 nM
- Read-out: 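Log2 levels of six mRNAs (branched-DNA multiplex), adjusted by two reference genes and the non-targeting median, then scored against the average KSR1 knockdown pattern as Pearson r and euclidean distance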
- Reading the numbers: mean correlation with KSR1 profile: higher = expression change more like KSR1 knockdown; mean distance from KSR1 profile: higher = expression change less like KSR1 knockdown
In all, the deposit lists about 14,000 reagents; below is a random part of them. 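Higher correlation or smaller distance means closer resemblance to KSR1 loss; control wells, including KSR1 knockdowns, recur on many plates.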 Further read-outs or replicates are left out here. Reagent sequences are not shown. Not stated in the record: the time to read-out.

NHLH1 (GeneID 4807)
- mean correlation with KSR1 profile: 0.541
- mean distance from KSR1 profile: 1.06

CHRM4 (GeneID 1132)
- mean correlation with KSR1 profile: 0.345
- mean distance from KSR1 profile: 1.29

LFNG (GeneID 3955)
- mean correlation with KSR1 profile: -0.329
- mean distance from KSR1 profile: 2.88

GRIPAP1 (GeneID 56850)
- mean correlation with KSR1 profile: -0.197
- mean distance from KSR1 profile: 1.68

PMVK (GeneID 10654)
- mean correlation with KSR1 profile: -0.148
- mean distance from KSR1 profile: 3.38

TAF5 (GeneID 6877)
- mean correlation with KSR1 profile: -0.211
- mean distance from KSR1 profile: 2.67

CASQ2 (GeneID 845)
- mean correlation with KSR1 profile: 0.273
- mean distance from KSR1 profile: 1.65

CRYGD (GeneID 1421)
- mean correlation with KSR1 profile: 0.292
- mean distance from KSR1 profile: 1.14

IL36G (GeneID 56300)
- mean correlation with KSR1 profile: 0.276
- mean distance from KSR1 profile: 1.11

TGFBR1 (GeneID 7046)
- mean correlation with KSR1 profile: 0.494
- mean distance from KSR1 profile: 1.16

MAP6 (GeneID 4135)
- mean correlation with KSR1 profile: -0.384
- mean distance from KSR1 profile: 1.94

ISLR (GeneID 3671)
- mean correlation with KSR1 profile: -0.104
- mean distance from KSR1 profile: 2.24

The list goes on; the last 2 above are carried over.
MAP6 (GeneID 4135)
- mean correlation with KSR1 profile: -0.384
- mean distance from KSR1 profile: 1.94

ISLR (GeneID 3671)
- mean correlation with KSR1 profile: -0.104
- mean distance from KSR1 profile: 2.24

MARCHF6 (GeneID 10299)
- mean correlation with KSR1 profile: -0.341
- mean distance from KSR1 profile: 1.98

TXNL4B (GeneID 54957)
- mean correlation with KSR1 profile: -0.362
- mean distance from KSR1 profile: 2.36

DKK1 (GeneID 22943)
- mean correlation with KSR1 profile: -0.109
- mean distance from KSR1 profile: 2.07

GALNT10 (GeneID 55568)
- mean correlation with KSR1 profile: -0.452
- mean distance from KSR1 profile: 5.23

PIGG (GeneID 54872)
- mean correlation with KSR1 profile: -0.16
- mean distance from KSR1 profile: 2.58

SSX5 (GeneID 6758)
- mean correlation with KSR1 profile: 0.00232
- mean distance from KSR1 profile: 2.25

TAF4B (GeneID 6875)
- mean correlation with KSR1 profile: 0.319
- mean distance from KSR1 profile: 1.15
